B1: TCP13, endogenous (protein, UniProt Q9S7W5 1-355)
chain: MNIVSWKDANDEVAGGATTRREREVKEDQEETEVRATSGKTVIKKQPTSISSSSSSWMKSKDPRIVRVSRAFGGKDRHSKVCTLRGLRDRRVRLSVPTAIQLYDLQERLGVDQPSKAVDWLLDAAKEEIDELPPLPISPENFSIFNHHQSFLNLGQRPGQDPTQLGFKINGCVQKSTTTSREENDREKGENDVVYTNNHHVGSYGTYHNLEHHHHHHQHLSLQADYHSHQLHSLVPFPSQILVCPMTTSPTTTTIQSLFPSSSSAGSGTMETLDPRQMVSHFQMPLMGNSSSSSSQNISTLYSLLHGSSSNNGGRDIDNRMSSVQFNRTNSTTTANMSRHLGSERCTSRGSDHHM
B2: TCP3, endogenous (protein, UniProt Q9MAH8 1-391)
chain: MAPDNDHFLDSPSPPLLEMRHHQSATENGGGCGEIVEVQGGHIVRSTGRKDRHSKVCTAKGPRDRRVRLSAPTAIQFYDVQDRLGFDRPSKAVDWLITKAKSAIDDLAQLPPWNPADTLRQHAAAAANAKPRKTKTLISPPPPQPEETEHHRIGEEEDNESSFLPASMDSDSIADTIKSFFPVASTQQSYHHQPPSRGNTQNQDLLRLSLQSFQNGPPFPNQTEPALFSGQSNNQLAFDSSTASWEQSHQSPEFGKIQRLVSWNNVGAAESAGSTGGFVFASPSSLHPVYSQSQLLSQRGPLQSINTPMIRAWFDPHHHHHHHQQSMTTDDLHHHHPYHIPPGIHQSAIPGIAFASSGEFSGFRIPARFQGEQEEHGGDNKPSSASSDSRH
B3: TCP17, endogenous (protein, UniProt Q9LEZ9 1-242)
chain: MGIKKEDQKSSLSLLTQRWNNPRIVRVSRAFGGKDRHSKVCTVRGLRDRRIRLSVMTAIQVYDLQERLGLSQPSKVIDWLLEVAKNDVDLLPPLQFPPGFHQLNPNLTGLGESFPGVFDLGRTQREALDLEKRKWVNLDHVFDHIDHHNHFSNSIQSNKLYFPTITSSSSSYHYNLGHLQQSLLDQSGNVTVAFSNNYNNNNLNPPAAETMSSLFPTRYPSFLGGGQLQLFSSTSSQPDHIE
B4: TCP10, endogenous (protein, UniProt O82277 1-361)
chain: MGLKGYSVGEGGGEIVEVQGGHIIRATGRKDRHSKVFTSKGPRDRRVRLSAHTAIQFYDVQDRLGYDRPSKAVDWLIKKAKTAIDKLELGETTTTTTRQEPVNTKPESPTLVFQRENNDQTQFVAANLDPEDAMKTFFPATTTTNGGGGTNINFQNYPHQDDNNMVSRTTTPPPNLSQDLGLSLHPFQGNNNTVVVPETNNFTTTHFDTFGRISGWNHHDLTMTSSSSSEHQQQEQEERSNGGFMVNHHPHHHHHQPSMMTLLNSQQQQVFLGGQQQQQQRGTLQSSLFPHSFRSWDHHQTTSDHHHHQNQASSMFASSSQYGSHGMMMMQGLSFPNTTRLLHGEEATQPNSSSSPPNSHL
B5: TCP24, endogenous (protein, UniProt Q9C758 1-324)
chain: MEVDEDIELQKHQEQQSRKLQRFSEDNTGLMRNWNNPSSRIIRVSRASGGKDRHSKVLTSKGLRDRRIRLSVATAIQFYDLQDRLGFDQPSKAVEWLINAASDSITDLPLLNTNFDHLDQNQNQTKSACSSGTSESSLLSLSRTEIRGKARERARERTAKDRDKDLQNAHSSFTQLLTGGFDQQPSNRNWTGGSDCFNPVQLQIPNSSSQEPMNHPFSFVPDYNFGISSSSSAINGGYSSRGTLQSNSQSLFLNNNNNITQRSSISSSSSSSSPMDSQSISFFMATPPPLDHHNHQLPETFDGRLYLYYGEGNRSSDDKAKERR
B6: TCP2, endogenous (protein, UniProt Q93V43 1-365)
chain: MIGDLMKNNNNGDVVDNEVNNRLSRWHHNSSRIIRVSRASGGKDRHSKVLTSKGPRDRRVRLSVSTALQFYDLQDRLGYDQPSKAVEWLIKAAEDSISELPSLNNTHFPTDDENHQNQTLTTVAANSLSKSACSSNSDTSKNSSGLSLSRSELRDKARERARERTAKETKERDHNHTSFTDLLNSGSDPVNSNRQWMASAPSSSPMEYFSSGLILGSGQQTHFPISTNSHPFSSISDHHHHHPHHQHQEFSFVPDHLISPAESNGGAFNLDFNMSTPSGAGAAVSAASGGGFSGFNRGTLQSNSTNQHQSFLANLQRFPTSESGGGPQFLFGALPAENHHHNHQFQLYYENGCRNSSEHKGKGKN
B7: TCP5, endogenous (protein, UniProt Q9FME3 1-360)
chain: MRSGECDEEEIQAKQERDQNQNHQVNLNHMLQQQQPSSVSSSRQWTSAFRNPRIVRVSRTFGGKDRHSKVCTVRGLRDRRIRLSVPTAIQLYDLQDRLGLSQPSKVIDWLLEAAKDDVDKLPPLQFPHGFNQMYPNLIFGNSGFGESPSSTTSTTFPGTNLGFLENWDLGGSSRTRARLTDTTTTQRESFDLDKGKWIKNDENSNQDHQGFNTNHQQQFPLTNPYNNTSAYYNLGHLQQSLDQSGNNVTVAISNVAANNNNNLNLHPPSSSAGDGSQLFFGPTPPAMSSLFPTYPSFLGASHHHHVVDGAGHLQLFSSNSNTASQQHMMPGNTSLIRPFHHLMSSNHDTDHHSSDNESDS

Sequences of proteins named here, by UniProt entry; tags and fusion partners are left off. A change or cut given only in a name is not applied to a line headed by its entry.
UniProt Q8LPR5: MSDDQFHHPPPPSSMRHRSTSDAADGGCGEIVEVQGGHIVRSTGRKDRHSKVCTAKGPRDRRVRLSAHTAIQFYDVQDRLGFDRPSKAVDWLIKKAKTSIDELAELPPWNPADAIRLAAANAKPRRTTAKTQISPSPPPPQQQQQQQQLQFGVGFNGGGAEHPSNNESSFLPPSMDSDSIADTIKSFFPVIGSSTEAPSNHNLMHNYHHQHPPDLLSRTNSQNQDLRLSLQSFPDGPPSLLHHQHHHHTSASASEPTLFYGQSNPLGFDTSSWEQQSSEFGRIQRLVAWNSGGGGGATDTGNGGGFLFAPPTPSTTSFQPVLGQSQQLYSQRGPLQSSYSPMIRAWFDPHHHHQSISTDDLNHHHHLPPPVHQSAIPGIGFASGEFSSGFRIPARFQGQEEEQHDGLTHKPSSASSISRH
UniProt Q9SQI2: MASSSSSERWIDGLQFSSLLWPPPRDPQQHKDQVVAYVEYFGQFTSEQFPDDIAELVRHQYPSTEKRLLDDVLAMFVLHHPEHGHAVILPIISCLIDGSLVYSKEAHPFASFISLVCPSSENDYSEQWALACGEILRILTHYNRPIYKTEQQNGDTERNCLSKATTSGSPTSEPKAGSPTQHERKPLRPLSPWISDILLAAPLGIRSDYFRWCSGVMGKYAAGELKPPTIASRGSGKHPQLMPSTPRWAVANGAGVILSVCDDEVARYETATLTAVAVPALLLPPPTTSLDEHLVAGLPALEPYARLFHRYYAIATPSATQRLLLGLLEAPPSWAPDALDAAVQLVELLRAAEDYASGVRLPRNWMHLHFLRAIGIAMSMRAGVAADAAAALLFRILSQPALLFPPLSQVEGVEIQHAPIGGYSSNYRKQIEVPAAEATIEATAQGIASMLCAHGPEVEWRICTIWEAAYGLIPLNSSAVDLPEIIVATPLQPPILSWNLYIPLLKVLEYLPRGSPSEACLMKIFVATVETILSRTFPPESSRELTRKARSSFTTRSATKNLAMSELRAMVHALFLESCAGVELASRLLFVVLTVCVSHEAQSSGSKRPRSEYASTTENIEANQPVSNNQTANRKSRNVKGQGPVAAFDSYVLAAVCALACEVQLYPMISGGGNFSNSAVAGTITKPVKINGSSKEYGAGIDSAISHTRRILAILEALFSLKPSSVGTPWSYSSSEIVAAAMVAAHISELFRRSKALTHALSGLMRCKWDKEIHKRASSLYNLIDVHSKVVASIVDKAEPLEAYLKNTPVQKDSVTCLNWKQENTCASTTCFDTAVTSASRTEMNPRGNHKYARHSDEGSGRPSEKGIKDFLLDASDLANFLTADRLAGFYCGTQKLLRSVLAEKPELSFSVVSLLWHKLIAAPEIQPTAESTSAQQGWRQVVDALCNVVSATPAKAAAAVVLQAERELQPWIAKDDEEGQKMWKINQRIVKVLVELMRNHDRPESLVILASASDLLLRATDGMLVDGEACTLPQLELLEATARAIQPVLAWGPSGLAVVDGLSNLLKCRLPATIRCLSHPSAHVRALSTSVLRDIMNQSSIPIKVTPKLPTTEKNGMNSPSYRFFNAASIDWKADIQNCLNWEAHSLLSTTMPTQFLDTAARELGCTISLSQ

No constants are given. Whether binding was seen depends on the method and setting. Binding seen in cells or lysates may run through a third protein. Here binding means that the protein was enriched with, or labelled near, the bait; the list need not be complete. For some assays here: No binding means not detected with the bait.

Drawing on article PMC5495492, this text covers binding for eight molecules.

The first experiment addresses TCP4-3F6H (Arabidopsis thaliana) (UniProt Q8LPR5). Nature of the experiment: affinity purification with mass spectrometry; tandem affinity purification (anti-FLAG Dynabeads, then as in ref. 67) of TCP4-3F6H from 2-week-old 35S:TCP4-3F6H seedlings in WT and gi-2 backgrounds harvested at ZT13; Col-0 as control; on-bead digestion, LC-MS/MS.
Consider B1, for which the binding result is given as “binds”. Still for that read-out and setting: next, B2: “binds”; B3: “binds”; B4: “binds”. Still for that read-out and setting: next, B5: “binds”; B6: “binds”; B7: “binds”.

For a further experiment the target is unchanged. Described as above. This is another data set of the same source.
As for “GIGANTEA (GI), endogenous (from UniProt Q9SQI2 1-1173)”, the binding entry was “no binding”.
